Data source: PubChem BioAssay AID652259 (Drosophila RNAi Screening Center, 2013)
The deposit covers about 22,000 reagents; shown is an unselected part of those with a known target gene and a result. In the full data, 233 (1.1%) got an active call. 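Light values are raw, unnormalised plate reads; the ratio scores behind the reporter calls were not deposited.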 A plus sign joins genes that one reagent is predicted to hit. Not stated in the record: the amount of reagent, the time to read-out, the dose of the treatment.

- Assay: 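Identify new Wingless signalling regulators in fly cells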 (primary screen)
- System: Drosophila clone 8 imaginal disc epithelial cells
- Reagent: long dsRNA against Drosophila genes
- Conditions: pathway stimulated by co-transfected Wingless expression plasmid
- Read-out: 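Firefly luciferase from a tcf-site Wingless reporter, measured alongside co-transfected Renilla luciferase that tracks transfection; pathway stimulated by a Wingless plasmid; the firefly-to-Renilla ratio is not deposited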
- Reading the numbers: firefly reporter light: higher = more Wg reporter light, before normalisation; Renilla control light: higher = more transfected or surviving cells
- Call rule: 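Strong candidates differ from their plate mean by at least two out of four per-plate statistical tests; weak candidates meet just one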
- Calls: active = candidate regulator (raises or lowers reporter); inactive = not a candidate

gene | DRSC id | reporter change call, replicate 1 | firefly reporter light, replicate 1 | firefly reporter light, replicate 2 | Renilla control light, replicate 1 | Renilla control light, replicate 2 | outcome
ac (achaete) | DRSC18734 | – | 11280 | – | 7479 | – | inactive
CG33758 | DRSC05158 | – | 14488 | – | 7517 | – | inactive
CG8468 | DRSC07190 | – | 7680 | – | 2970 | – | inactive
lcs (la costa) | DRSC20580 | – | 16897 | – | 9811 | – | inactive
CG12769 | DRSC06167 | – | 19872 | – | 6004 | – | inactive
CG5756 | DRSC06950 | – | 4883 | – | 2240 | – | inactive
CG10175 | DRSC13628 | – | 3062 | – | 1379 | – | inactive
CG10175 | DRSC14200 | – | 25458 | – | 19611 | – | inactive
CG10175 | DRSC21981 | – | 5.35e5 | 5.58e5 | 2.35e5 | 2.55e5 | inactive
fand (fandango) | DRSC06967 | – | 10299 | – | 2477 | – | inactive
Camta (Calmodulin-binding transcription activator) | DRSC06440 | – | 2909 | 7324 | 491 | 2259 | inactive
Camta (Calmodulin-binding transcription activator) | DRSC06441 | – | 4147 | 10290 | 993 | 4201 | inactive
Camta (Calmodulin-binding transcription activator) | DRSC07272 | – | 8061 | – | 2008 | – | inactive
Rpn13R (Regulatory particle non-ATPase 13-related) | DRSC18404 | – | 21555 | – | 8182 | – | inactive
His-Psi:CR31754 (pseudo) | DRSC22051 | Wg reporter activity raised | 8.85e5 | 7.94e5 | 36816 | 33102 | inactive
CG32181 | DRSC22635 | – | 7.93e5 | 7.56e5 | 3.50e5 | 1.01e5 | inactive
Cyp313b1 (Cytochrome P450 313b1) | DRSC16629 | – | 14816 | – | 3424 | – | inactive
CG33791 + CG12105 + CG18170 | DRSC08387 | – | 20729 | – | 4525 | – | inactive
CG7567 | DRSC16258 | – | 8555 | – | 2774 | – | inactive
CG6356 | DRSC16026 | – | 14928 | – | 14880 | – | inactive
vih (vihar) | DRSC09778 | – | 8074 | – | 2043 | – | inactive
dpr15 (defective proboscis extension response 15) | DRSC12891 | – | 3116 | – | 1312 | – | inactive
dpr15 (defective proboscis extension response 15) | DRSC14187 | – | 10824 | – | 3849 | – | inactive
dpr15 (defective proboscis extension response 15) | DRSC14188 | – | 20027 | – | 4755 | – | inactive
BomT3 (Bomanin Tailed 3) | DRSC13537 | – | 3760 | – | 1803 | – | inactive
BomT3 (Bomanin Tailed 3) | DRSC15871 | – | 36793 | – | 7395 | – | inactive
CG12519 | DRSC10311 | – | 12698 | – | 4209 | – | inactive
CG12519 | DRSC21549 | – | 3.85e5 | 4.36e5 | 97310 | 94870 | inactive
Spn77Ba (Serpin 77Ba) | DRSC10693 | – | 3123 | – | 971 | – | inactive
Prosbeta3 (Proteasome beta3 subunit) | DRSC16801 | – | 3994 | – | 2444 | – | inactive
CG18765 | DRSC15392 | – | 22429 | – | 4950 | – | inactive
Jon25Bii (Jonah 25Bii) | DRSC03114 | – | 3972 | 9809 | 1280 | 2667 | inactive
CG7551 | DRSC10876 | – | 7029 | – | 3650 | – | inactive
BTBD9 (BTB (POZ) domain containing 9) | DRSC18148 | – | 24898 | – | 12005 | – | inactive
BTBD9 (BTB (POZ) domain containing 9) | DRSC22371 | – | 9.45e5 | 8.90e5 | 2.79e5 | 2.49e5 | inactive
CG17593 | DRSC00504 | – | 2513 | 6497 | 1236 | 1973 | inactive
CG30376 | DRSC05086 | – | 16896 | – | 6800 | – | inactive
unpg (unplugged) | DRSC07713 | – | 1453 | 5059 | 556 | 2630 | inactive
CG13871 | DRSC06430 | – | 8105 | – | 2656 | – | inactive
CG3961 | DRSC10390 | – | 5736 | – | 2084 | – | inactive
CG3961 | DRSC10391 | – | 9708 | – | 3362 | – | inactive
CG13001 | DRSC19520 | – | 31208 | – | 16650 | – | inactive
CG13001 | DRSC22443 | – | 7.07e5 | 7.07e5 | 2.41e5 | 66673 | inactive
RpS27 (Ribosomal protein S27) | DRSC14244 | – | 20720 | – | 16012 | – | inactive
Galphao (G protein alpha subunit o) | DRSC07430 | – | 11670 | – | 3812 | – | inactive
CG13733 | DRSC10061 | – | 5317 | – | 2397 | – | inactive
HUWE1 | DRSC20089 | – | 24384 | – | 10806 | – | inactive
Atet (ABC transporter expressed in trachea) | DRSC00263 | – | 3644 | 4333 | 1281 | 1619 | inactive
CG10418 | DRSC09720 | – | 9076 | – | 2508 | – | inactive
AGO1 (Argonaute-1) | DRSC05912 | – | 11954 | – | 2875 | – | inactive
CG12679 | DRSC20493 | – | 14864 | – | 9105 | – | inactive
CG7420 | DRSC00704 | – | 6460 | – | 3184 | – | inactive
Nsun2 (NOP2-Sun domain family, member 2) | DRSC18662 | – | 4832 | 9467 | 1877 | 3504 | inactive
bru2 (bruno 2) | DRSC01246 | – | 21461 | – | 11834 | – | inactive
bru2 (bruno 2) | DRSC01247 | – | 21837 | – | 7816 | – | inactive
bru2 (bruno 2) | DRSC01249 | – | 18189 | – | 10845 | – | inactive
bru2 (bruno 2) | DRSC01250 | – | 34617 | – | 11867 | – | inactive
bru2 (bruno 2) | DRSC02557 | Wg reporter activity raised | 3882 | 9082 | 416 | 1265 | active
CG8300 | DRSC18426 | Wg reporter activity raised | 4357 | 13112 | 395 | 1088 | active
Ir60b (Ionotropic receptor 60b) | DRSC04217 | – | 2592 | 9335 | 787 | 2651 | inactive
CG4613 | DRSC10435 | – | 10313 | – | 3329 | – | inactive
Zcchc7 (Zinc finger CCHC-type containing 7) | DRSC11099 | – | 4490 | – | 1483 | – | inactive
CG9175 | DRSC03153 | – | 13467 | – | 6384 | – | inactive
CG14929 | DRSC02411 | – | 2721 | 9220 | 640 | 4273 | inactive
ND-B15 (NADH dehydrogenase (ubiquinone) B15 subunit) | DRSC06199 | – | 9312 | – | 2744 | – | inactive
dpr7 (defective proboscis extension response 7) | DRSC17109 | – | 3264 | – | 1180 | – | inactive
CG9294 | DRSC04537 | – | 1769 | 5351 | 864 | 1977 | inactive
ato (atonal) | DRSC16904 | – | 13602 | – | 3570 | – | inactive
p23 | DRSC15158 | – | 8584 | – | 2675 | – | inactive
Nadsyn (NAD synthetase) | DRSC20222 | – | 2379 | 5916 | 903 | 2184 | inactive
CG10280 | DRSC12133 | – | 13136 | – | 2796 | – | inactive
Drep4 (DNA fragmentation factor-related protein 4) | DRSC03408 | – | 2260 | 6677 | 1491 | 3808 | inactive
eIF5B (eukaryotic translation initiation factor 5B) | DRSC08429 | – | 2672 | – | 1827 | – | inactive
eIF5B (eukaryotic translation initiation factor 5B) | DRSC08710 | Wg reporter activity lowered | 2092 | – | 2000 | – | inactive

A run of entries taken from the entries so far, for reference:
gene | DRSC id | reporter change call, replicate 1 | firefly reporter light, replicate 1 | firefly reporter light, replicate 2 | Renilla control light, replicate 1 | Renilla control light, replicate 2 | outcome
HUWE1 | DRSC20089 | – | 24384 | – | 10806 | – | inactive
Atet (ABC transporter expressed in trachea) | DRSC00263 | – | 3644 | 4333 | 1281 | 1619 | inactive
CG10418 | DRSC09720 | – | 9076 | – | 2508 | – | inactive
AGO1 (Argonaute-1) | DRSC05912 | – | 11954 | – | 2875 | – | inactive
CG12679 | DRSC20493 | – | 14864 | – | 9105 | – | inactive
CG7420 | DRSC00704 | – | 6460 | – | 3184 | – | inactive
Nsun2 (NOP2-Sun domain family, member 2) | DRSC18662 | – | 4832 | 9467 | 1877 | 3504 | inactive
bru2 (bruno 2) | DRSC01246 | – | 21461 | – | 11834 | – | inactive
bru2 (bruno 2) | DRSC01247 | – | 21837 | – | 7816 | – | inactive
bru2 (bruno 2) | DRSC01249 | – | 18189 | – | 10845 | – | inactive
bru2 (bruno 2) | DRSC01250 | – | 34617 | – | 11867 | – | inactive
bru2 (bruno 2) | DRSC02557 | Wg reporter activity raised | 3882 | 9082 | 416 | 1265 | active
